Data from PMC10714548.
Results are given in words; binding and its absence hold for the method and conditions named. In cells and extracts the contact can be indirect. Some results given as binding are weak or reduced against the parent protein; the word gives no strength.

The chains behind the UniProt entries cited, without tags or fusion partners. Residues count along the entry.
UniProt Q9BRR6, residues 23-497: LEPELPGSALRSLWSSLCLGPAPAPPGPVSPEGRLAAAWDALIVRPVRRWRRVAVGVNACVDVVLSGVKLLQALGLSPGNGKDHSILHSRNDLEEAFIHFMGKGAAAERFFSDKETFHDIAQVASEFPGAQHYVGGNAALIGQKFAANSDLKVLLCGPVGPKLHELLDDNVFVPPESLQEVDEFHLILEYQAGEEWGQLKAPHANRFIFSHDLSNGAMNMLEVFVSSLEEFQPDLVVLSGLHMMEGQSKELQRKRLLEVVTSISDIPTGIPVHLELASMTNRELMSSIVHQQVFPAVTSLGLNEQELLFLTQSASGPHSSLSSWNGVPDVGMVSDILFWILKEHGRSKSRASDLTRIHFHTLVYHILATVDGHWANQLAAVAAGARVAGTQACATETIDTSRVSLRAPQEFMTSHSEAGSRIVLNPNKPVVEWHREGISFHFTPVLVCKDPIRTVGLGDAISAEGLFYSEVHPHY

Target: ADP-dependent glucokinase (ADPGK) fused with a 6 × His-tag (UniProt Q9BRR6)
Assay: co-IP; Pierce Co-IP kit; His-tag antibody (IgG antibody as control) coupled to the resin; precleared lysate (1 μg/μl) of cells expressing ADPGK-6 × His incubated at 4 °C overnight; eluate analysed by Western blotting

B1: Aldolase C (ALDOC) (enzyme, UniProt P09972 1-364)
chain: MPHSYPALSAEQKKELSDIALRIVAPGKGILAADESVGSMAKRLSQIGVENTEENRRLYRQVLFSADDRVKKCIGGVIFFHETLYQKDDNGVPFVRTIQDKGIVVGIKVDKGVVPLAGTDGETTTQGLDGLSERCAQYKKDGADFAKWRCVLKISERTPSALAILENANVLARYASICQQNGIVPIVEPEILPDGDHDLKRCQYVTEKVLAAVYKALSDHHVYLEGTLLKPNMVTPGHACPIKYTPEEIAMATVTALRRTVPPAVPGVTFLSGGQSEEEASFNLNAINRCPLPRPWALTFSYGRALQASALNAWRGQRDNAGAATEEFIKRAEVNGLAAQGKYEGSGEDGGAAAQSLYIANHAY
Which binding does the source give for B1 here?
Its binding is “binds”.
